Experimental data: article PMC4554924
No constants are given. Whether binding was seen depends on the method and setting. Some results given as binding are weak or reduced against the parent protein; the word gives no strength.

T1: Atg8 (DDB_G0286191) (Dictyostelium discoideum) (UniProt Q86CR8)
T1 sequence: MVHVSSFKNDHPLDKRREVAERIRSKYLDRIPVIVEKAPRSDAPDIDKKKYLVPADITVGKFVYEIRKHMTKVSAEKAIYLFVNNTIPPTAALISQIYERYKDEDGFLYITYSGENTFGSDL

T2: Atg12 (Dictyostelium discoideum) (UniProt Q86CR6)
T2 sequence: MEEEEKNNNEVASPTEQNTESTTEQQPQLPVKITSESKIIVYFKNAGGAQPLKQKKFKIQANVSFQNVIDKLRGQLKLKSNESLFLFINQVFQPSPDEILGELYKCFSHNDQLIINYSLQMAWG


Columns and labels:
[1] = biological target: T1, Atg8 (DDB_G0286191) (Dictyostelium discoideum); assay: two-hybrid; library screen: LexA fusion bait in pLexA(U) against a D. discoideum cDNA library in pAD-GAL4-2.1, S. cerevisiae TAT7; His+ transformants with 5 mM 3-aminotriazole, then beta-galactosidase filter assay; interactions recapitulated in a fresh yeast strain with bait and prey plasmids
[2] = biological target: T2, Atg12 (Dictyostelium discoideum); assay: two-hybrid; pairwise analysis: atg genes in pACT2 and pLexA(1-202)+PL, S. cerevisiae TAT7
[3] = biological target: T1, Atg8 (DDB_G0286191) (Dictyostelium discoideum); assay: as above
[4] = biological target: putative Atg17 (DDB_G0295673) (Dictyostelium discoideum) (UniProt B0G140); assay: as above

Binder	binding [1]	also measured
Atg7 DDB_G0271096, library clone 301-707 (domain or fragment, UniProt Q86CR9 301-707) GEWSGKSVGWEKDSNGKIAPRFVSLASTMDPLKLAEQSVDLNLKLMRWRVMPSLELEKIKTTSCLLLGSGTLGCNVARSLMSWGVRNITFVDSSKVSYSNPVRQSLFTFADCSPKAKEKSIAAADALKKIFPAINANAHVFSIPMPGHSVPQSEYQSIRNTIELLENLIKQHDVIYLLTDSRESRWLPTMLSRAHGKLCINAALGFDSYLVIRHGIKDQCQNELNPSISSKLGYQGSDLGCYFCNDVIAPTDTLKDRTLDQMCTVTRPGLSMMASSIAVELLISTIHHPYGGRAKGETETDVYVQGSTPLGIIPHQLRGFISHYQTLPLFSNPYKHCTACSDYIIDEYNSKGFDFIINVMNDSSCLTKICGIDDLKNTEVNIDWDIDISDDDDDNNNNNNKEKNDDF	binds	
Atg7 (pairwise two-hybrid construct) (protein, UniProt Q86CR9 1-707) MTNTLQFKEFSSFVNISFWHELSNKKLDELKLSEESIPLNGHYTFSPSQQLDPFLCLEFNAFLRNNVTNSTENQYVLPPRSYLSHGTLYNYNTVDDFKQSPKIKLFNDASKRIWNDINNGNIDKDTSLLNRFILLTYADIKNHQFYYMFGIPALLPSQPIQQFTEKPESINIESLKSFSNQILPQYFCLKQQQQESSTTTTTSFELIGSIEEKGNQYLNECLENDLIPLVGFCDPCSLPLNPGWPLRNFLIYLSIKYPMLKKIKVLCYRGNGSTSNSILLSLELPSMGEQLIKKQQEEDAGEWSGKSVGWEKDSNGKIAPRFVSLASTMDPLKLAEQSVDLNLKLMRWRVMPSLELEKIKTTSCLLLGSGTLGCNVARSLMSWGVRNITFVDSSKVSYSNPVRQSLFTFADCSPKAKEKSIAAADALKKIFPAINANAHVFSIPMPGHSVPQSEYQSIRNTIELLENLIKQHDVIYLLTDSRESRWLPTMLSRAHGKLCINAALGFDSYLVIRHGIKDQCQNELNPSISSKLGYQGSDLGCYFCNDVIAPTDTLKDRTLDQMCTVTRPGLSMMASSIAVELLISTIHHPYGGRAKGETETDVYVQGSTPLGIIPHQLRGFISHYQTLPLFSNPYKHCTACSDYIIDEYNSKGFDFIINVMNDSSCLTKICGIDDLKNTEVNIDWDIDISDDDDDNNNNNNKEKNDDF		binding [2]: binds; binding [3]: binds
putative Atg17 (DDB_G0295673) (protein, UniProt B0G140 1-488) MDFSSKSLELCKSHSNQTDQLLKISKQTYEKYDNSLSKLHLIIRELNKQLIILKETSTQFNDRYNTFINDFTSLSNQKQSLFTSIENKLEILKKKYLDKGLVFKNNNNNNNNNNNNNNNNNNNSNKSTEDDNNENNNNNDVNKNNNNNNNNNLNTLYDFIDIESLELIKNQFLSELSGLNEICDKSKQIYKSTNESNLEMENRFLEIQKQYNKQIEESNSLSDLLTQQNNLYKTIQNQLINVASQCDFITFYKPSPSPLSPSPSPSSSSSSSSPSPSSPQQQHDFNINNKKEQIQLLLTSSLENIQLMSKNVKDIENQFKESCSIYTLVYLLNEKLSFGNDFSENWETFERFNCIFEQRLAGANYFIGELYSLGKWYDLFDESYDNLLEEVKRRQKEYLRQKTIAEQFNEELKHNYNQEIQNRLKFYDSYGKYLPVSLFSTISDQPISFQVKQIIEESVIDYSFNPLNLKRSSPINQQQQQQQPPPNS		binding [4]: binds
CrtA, calreticulin DDB_G0283539, library clone 176-424 (domain or fragment, UniProt Q23858 176-424) ISPDNTYKVLVDNKEIQAGNLADDWELLPSKQIKDPKQSKPVDWVDVKEIDDPEDVKPAGHDDIPASIVDPEAVKPEDWNEEDDGEWEAPTIANPEYKGEWKAKKIPNPEYKGEWVHPLIDNPEYAEDNELYLFNDLGAIGFELWQVKSGSIFNNMIVTDSVEEAKDFSEKTFVANQEAEKKMFDDLEAAKAEERKKADEKLAAEKAAEKEAEEADEEEEEVAEEDLVKTDDKKEEVKKSTKKVDHDEL	binds	
CnrK, cell number regulator DDB_G0292120, library clone 772-1214 (domain or fragment, UniProt Q54DM8 772-1214) EISNLLNKSIPSDQVEYDPKKIRLFNLYGGQIKSSSDIINNEPIFITTSIHEQFIEPQIPTLTLEEIEEAQKQIELENKNNVKILVDQKEKVFTQLKPKNKRMNDTLKLRENLENQLKLQEKLKIDQENLGNPNVQLFTDEIRDQYFYYRTTLLDSDNDDSDEYYYYDDSDEYEQYNAKDLIDHPTSNDTTTVTTTTATTTTTATEESIIIDGEDEFVNIDSNSSSSEFEDGDEDLLEIKRLQEIDDQVLEKENQLIVQEQKQIDLVFKVLEMYQDEKFGLDFDKVFSVCSDSKNLSQAIKKMTNYLDENYYSNQYGITQTYLLIKERLSFTFPNLSLTVIDRAIKESKYNHDKAKSWIYNKFQKQQKKKFNQLSKNNQQQQQQQQQPQSQQQPQLQTRKINTSEQFEIESEDDDSYDIDEAENYLTEKIYNDKVSKFHHKMD	binds	
Dnpep, aspartyl aminopeptidase DDB_G0286149, library clone 1-484 (protein, UniProt Q54M70 1-484) MEQYLPQAKEFISFIDKSPSPYHAVQYFSEILKSKGFIHLSEKQMWDIQPNKKYFFTRNQSCISAFAVGGKYKPGNGFNIAAAHTDSPNFKVRPVSKVESVGYQQVGVETYGGGLWYTWFDRDLTVAGRVIVKSGDGSYESKLVHIKKPILRIPSLAIHLDRSVNTDGFKYNTQNHLVPMIASKLSEPVESKSTTTTTTTESPKTSDPQDVNSSTTKHHAVLLELLSKELGCSVGDIQNFDLSVCDTQPAAIGGALDEFIFSPRCDNLGMSYCAMIGLLNVKESTLAQEENVLNVILFDNEEVGSSSPQGACAPLINDTISRVNSSMFASTCKPHELNNFIDLTLRNSFLISADMAHAIHPNYTANHEPLHRPALNKGPVIKYNANLRYASNGPTSFVILDICKKNGIPIQEFLVKNDSPCGSTIGPIISGTYGIRTVDIGNPQLSMHSIRETCGVADITHGINLIQKYFEQFTKLDIIKSDLE	binds	
